# Percent effect of library compounds

Protein sequences, listed by entry. Tags and fused reporters are not part of them. Residues count along the entry.
UniProt A4I591, 1-473: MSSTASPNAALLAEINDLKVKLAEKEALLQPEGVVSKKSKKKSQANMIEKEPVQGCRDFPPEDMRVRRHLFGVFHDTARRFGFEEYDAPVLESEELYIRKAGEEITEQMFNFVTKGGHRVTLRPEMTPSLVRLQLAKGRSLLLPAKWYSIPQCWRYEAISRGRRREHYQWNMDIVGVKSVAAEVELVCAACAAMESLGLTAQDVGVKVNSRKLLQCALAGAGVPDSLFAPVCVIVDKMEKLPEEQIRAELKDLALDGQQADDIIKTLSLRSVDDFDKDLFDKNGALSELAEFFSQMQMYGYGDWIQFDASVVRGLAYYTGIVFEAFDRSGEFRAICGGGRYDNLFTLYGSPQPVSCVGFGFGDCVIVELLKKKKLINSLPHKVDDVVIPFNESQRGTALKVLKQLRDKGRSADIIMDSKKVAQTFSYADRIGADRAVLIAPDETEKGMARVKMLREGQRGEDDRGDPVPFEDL
UniProt Q8IDJ8, 1-583: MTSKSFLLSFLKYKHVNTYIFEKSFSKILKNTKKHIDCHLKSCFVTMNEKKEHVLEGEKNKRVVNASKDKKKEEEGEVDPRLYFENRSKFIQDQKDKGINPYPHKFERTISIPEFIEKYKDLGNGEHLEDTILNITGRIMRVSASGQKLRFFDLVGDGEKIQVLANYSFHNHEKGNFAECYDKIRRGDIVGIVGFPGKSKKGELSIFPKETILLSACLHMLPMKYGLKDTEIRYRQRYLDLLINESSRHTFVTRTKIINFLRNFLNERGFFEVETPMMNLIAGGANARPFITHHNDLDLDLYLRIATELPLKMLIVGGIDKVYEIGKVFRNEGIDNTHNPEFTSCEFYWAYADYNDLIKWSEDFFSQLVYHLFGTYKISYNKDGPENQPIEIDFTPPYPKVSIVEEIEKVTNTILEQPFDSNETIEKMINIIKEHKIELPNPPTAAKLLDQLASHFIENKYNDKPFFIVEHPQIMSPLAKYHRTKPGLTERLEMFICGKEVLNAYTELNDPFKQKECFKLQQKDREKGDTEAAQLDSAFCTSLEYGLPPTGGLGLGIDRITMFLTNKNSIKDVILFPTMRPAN
UniProt Q4DA54, 1-478: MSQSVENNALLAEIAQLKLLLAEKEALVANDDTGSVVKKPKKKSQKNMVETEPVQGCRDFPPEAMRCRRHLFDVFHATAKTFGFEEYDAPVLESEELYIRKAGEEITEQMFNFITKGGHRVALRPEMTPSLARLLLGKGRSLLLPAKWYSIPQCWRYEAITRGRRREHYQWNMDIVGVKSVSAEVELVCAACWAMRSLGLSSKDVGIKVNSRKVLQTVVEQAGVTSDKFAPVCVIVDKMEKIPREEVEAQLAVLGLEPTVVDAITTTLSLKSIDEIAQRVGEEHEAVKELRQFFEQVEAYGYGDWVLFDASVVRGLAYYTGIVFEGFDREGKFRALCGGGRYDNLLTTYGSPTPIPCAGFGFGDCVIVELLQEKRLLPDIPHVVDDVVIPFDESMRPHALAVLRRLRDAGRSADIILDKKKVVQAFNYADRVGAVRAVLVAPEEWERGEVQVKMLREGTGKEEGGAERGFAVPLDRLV

From ChEMBL document CHEMBL3988442, “University of Dundee, Small-Polar-MMV Screening Library” (2021).

LiHisRS: 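Histidine-tRNA ligase, Leishmania infantum (UniProt A4I591). Enzyme assay of histidyl-tRNA synthetase; the read-out is not stated. Concentration: 30 µM. The record gives no direction; compounds that gave an IC50 in retests scored well above the rest, so higher reads as stronger inhibition. The assay is labelled LdHisRS but filed under L. infantum. Of about 69,000 compounds tested this way, about 410 (0.6%) reached 50% or more in at least one test.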
PfKRS1: 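Lysine-tRNA ligase, Plasmodium falciparum 3D7 (UniProt Q8IDJ8). Enzyme assay of the cytosolic lysyl-tRNA synthetase in 384-well plates, read by luminescence. Concentration: 30 µM. Direction is inferred from only a few compounds that gave an IC50; most scored high, so higher reads as stronger inhibition. Of about 69,000 compounds tested this way, about 49 (0.071%) reached 50% or more in at least one test.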
TcHisRS: 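Histidine-tRNA ligase, Trypanosoma cruzi CL Brener (UniProt Q4DA54). Enzyme assay of histidyl-tRNA synthetase; the read-out is not stated. Compounds at 30 µM. The record gives no direction; compounds that gave an IC50 in retests scored well above the rest, so higher reads as stronger inhibition. Of about 69,000 compounds tested this way, about 31 (0.045%) reached 50% or more in at least one test.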

Results are given as percent effect.
The record does not define 0% and 100%; most values in the screen are far below 50% and negative numbers occur (in some assays of this library far below -100).
This is an unselected part of the compounds tested.

| # | structure | LiHisRS | PfKRS1 | TcHisRS |
|---|---|---|---|---|
| 1 | `COc1cc(N(C)Cc2noc(CC(C)C)n2)ncn1` | 6.993 | -2.841 | 4.478 |
| 2 | `C=C(C)COc1cccc(CNCCc2nc(N)cc(O)n2)c1` | 4.444 | 3.082 | 0.6061 |
| 3 | `O=C1CC(c2ccc(C(F)(F)F)cc2)c2c(n3ccsc3nc2=O)N1` (centres undefined) | 21.05 | 4.97 | -7.602 |
| 4 | `COc1c(C2CCCN2C(=O)c2ccco2)c(C)nn1C` (centres undefined) | 6.452 | 3.475 | 8.247 |
| 5 | `O=C(Cc1n[nH]c2ccccc12)N1CCCC1Cn1cccn1` (centres undefined) | 14.29 | 1.153 | 2.305 |
| 6 | `CCS(=O)(=O)CC(=O)N1CCCC(c2noc(C(C)C)n2)C1` (centres undefined) | -3.896 | 0.2322 | 4.433 |
| 7 | `Cc1cc(CN2CCC(CNC(=O)Cc3ccc(F)cc3)C2)[nH]n1` (centres undefined) | 27.63 | 2.066 | 5.435 |
| 8 | `Cc1nnn2c1COC(CNC(=O)c1cccn1C)C2` (centres undefined) | 16.36 | 4.77 | 9.091 |
| 9 | `Cn1cc(C2CCCN2c2ncnc3[nH]ccc23)cn1` (centres undefined) | 10.34 | 3.287 | 6.806 |
| 10 | `COc1cc(NCc2ncc[nH]2)ccc1Br` | 3.419 | 0.2687 | 0.5405 |
| 11 | `CC(O)C1CCN(C(=O)CCOc2ccccc2F)CC1` (centres undefined) | 10.84 | 3.672 | 5.473 |
| 12 | `COCCCNC(=O)CN(C)C(C)c1nc(C(C)C)no1` (centres undefined) | 2.041 | -3.242 | 3 |
| 13 | `CN1CCCC1CCNC(=O)c1ccccc1-n1cnc(CN)c1` (centres undefined) | 2.797 | 1.194 | 3.955 |
| 14 | `O=S(=O)(NCC(O)c1ccoc1)c1ccc(Br)s1` (centres undefined) | 5.195 | 0.1657 | 4.848 |
| 15 | `CCC[C@H]1CN(CCS(C)(=O)=O)C[C@@H]1NC(=O)c1cccnn1` | -8.571 | 2.555 | 4.124 |
| 16 | `CCS(=O)(=O)N1CCOC(CCCc2ccccc2)C1` (centres undefined) | 4.712 | -2.204 | -1.604 |
| 17 | `Cc1noc(CN(Cc2ccco2)Cc2cccc3c2OCO3)n1` | 2.857 | 2.576 | 4.082 |
| 18 | `CCCN1CCN(C(=O)Cc2nc(-c3ccco3)oc2C)CC1` | 14.88 | 3.366 | 3.361 |
| 19 | `COc1cccc(NC(=O)Nc2ccc3c(c2)CC(=O)N3)c1` | 7.692 | 2.6 | 4.819 |
| 20 | `COc1ncc(CN(C)C2CCN(C(C)C)CC2)cn1` | 4.255 | 1.281 | -10.15 |
| 21 | `CCOCC(=O)N1CCCC2(CCN(c3ccccc3)C2=O)C1` (centres undefined) | 0 | 1.931 | 0 |
| 22 | `Cn1cc(CN2CCS(=O)(=O)C(C)(C)C2)cn1` | -60 | 3.617 | 8.04 |
| 23 | `O=C(c1cccnc1N1CCOC(c2ccc(F)cc2)C1)N1CCCC1` (centres undefined) | 8.571 | 12.87 | 3.093 |
| 24 | `CC1CN(c2ncnc3sccc23)CCN1c1nccs1` (centres undefined) | 15.29 | 0.9319 | 10.05 |
| 25 | `CN(C)C1CCN(Cc2cnc(S(C)(=O)=O)n2CC2CCCCC2)C1` (centres undefined) | -3.03 | 3.438 | 2.116 |
| 26 | `CC(C)c1nnc(NC(=O)CN2C(=O)c3ccccc3NC2C(C)C)s1` (centres undefined) | 19.57 | 4.008 | 10.89 |
| 27 | `CCNc1ncc(CN2C[C@H](C3CC3)[C@@H](N)C2)cn1` | -5.263 | 1.156 | 6.145 |
| 28 | `CCN1CCC(NC(=O)CN2CCc3c(ncn3C)C2)CC1` | 8.108 | 1.452 | 1.88 |
| 29 | `Cn1cnnc1C1CCCN(C(=O)CCc2ccc3c(c2)OCO3)C1` (centres undefined) | 3.306 | 1.86 | 5.042 |
| 30 | `CC(C)CCC(=O)N1CCC2(CC1)OCCO2` | 11.5 | 9.546 | 2.212 |
| 31 | `Cc1ccc(CN2C[C@@H]3[C@@H](C(=O)NCC(C)C)CCS(=O)(=O)[C@@H]3C2)cc1` | 1.389 | 1.898 | 2.804 |
| 32 | `CC(C)Nc1nc2c(s1)C(=O)CN(C(=O)NCCc1ccccc1)C2` | 17.14 | 2.169 | 6.78 |
| 33 | `CN(Cc1ccc2nonc2c1)C(=O)CCc1cc2n(n1)CCCNC2` | 0 | 4.63 | -2.564 |
| 34 | `COc1ccc(-c2nc(CN(C)Cc3nncn3C)c(C)o2)c(C)c1C` | 8.434 | 8.72 | 2.439 |
| 35 | `CC(=O)N(C)c1nc(Cn2nnnc2C2CCCC2)cs1` | 11.9 | 2.42 | 13.86 |
| 36 | `COCC[C@]1(O)CCN(Cc2nc(C)cs2)C[C@H]1C` | -6.452 | -5.757 | 1.554 |
| 37 | `CC(C)Nc1oc(-c2ccc(S(=O)(=O)N(C)C)o2)nc1C#N` | 17.39 | 0.0584 | 7 |
| 38 | `Cc1ncsc1CN1CC[C@H]2OCC[C@@]2(C(=O)NC(C)C)C1` | -0.9709 | -7.989 | 5.435 |
| 39 | `CCOC(=O)CNC(=O)Cn1c(-c2ccoc2)nc(C)c1C` | 13.86 | 2.756 | 11.36 |
| 40 | `CS(=O)(=O)N1CCCC(C(=O)Nc2cnn(COCC(F)(F)F)c2)C1` (centres undefined) | 8.247 | 2.878 | 0 |
| 41 | `CN(Cc1cccc(OCCO)c1)Cc1cccc2ncccc12` | -2.797 | -2.631 | 2.488 |
| 42 | `CCC(NC(=O)c1cnc(N(C)C)nc1C)c1ccc(S(C)(=O)=O)cc1` (centres undefined) | 11.76 | 5.428 | 8.642 |
| 43 | `CNc1ncccc1C(=O)N1CCCC2(CCN(C)CC2)CC1` | -4.225 | 3.25 | 3.185 |
| 44 | `Cc1cn2c(n1)CCC(NC(=O)c1[nH]ncc1Br)C2` (centres undefined) | 3.448 | 1.241 | 5.085 |
| 45 | `CS(=O)(=O)CCS(=O)(=O)Cc1cc(Cl)c2c(c1)OCCCO2` | 4 | 5.477 | -1.734 |
| 46 | `Cc1cccc(Nc2cc(C)nc(C3CCN(C(C)C)C3)n2)n1` (centres undefined) | 14.49 | -1.281 | 6.818 |
| 47 | `O=C(c1cscn1)N1CCC2(CN(Cc3ccsc3)C2)C1` | 0 | -2.042 | -1.754 |
| 48 | `O=C(NC1CC1)[C@@H]1CCO[C@@H]2CCN(C3CCOCC3)C[C@H]21` | 16.04 | -2.78 | -2.51 |
| 49 | `COc1ccc(Cn2c(CCc3c(C)n[nH]c3C)n[nH]c2=O)cc1` | 14.67 | 7.41 | 0.5291 |
| 50 | `CS(=O)(=O)NCCC(=O)N1CCN(S(=O)(=O)c2ccc(Br)cc2)CC1` | 23.08 | 0.4404 | -1.685 |
| 51 | `CC(C)CCn1[nH]c(CNc2ccccc2)nc1=O` | 8.571 | 3.517 | 4.348 |
| 52 | `Cc1cc(C)n(CC2CCCN2Cc2ccc(F)cc2C#N)n1` (centres undefined) | 2.857 | 0 | 7.143 |
| 53 | `Cc1ccc(F)c(S(=O)(=O)Nc2cn(C)cc(Br)c2=O)c1` | 6.122 | 2.737 | 6.154 |
| 54 | `CC(=O)N(C)Cc1nn(C)c2c1CN(Cc1ccsc1)C2` | 9.091 | 4.912 | 7.097 |
| 55 | `c1ccc(-n2ccc(CNCC3CCCN3c3cccnn3)n2)cc1` (centres undefined) | 25.44 | -0.4498 | 15.03 |
| 56 | `CCc1cnc(C)nc1NCc1cnc2c(c1)CCC2` | 22.34 | 2.933 | 10.1 |
| 57 | `COc1ccc(OC)c(CNc2c(O)c(=O)c2=O)c1` | 15.79 | 4.854 | 10.98 |
| 58 | `CCC(c1ccc(F)cc1F)N1CCN(CCO)CC1` (centres undefined) | 5.357 | 5.935 | -0.8772 |
| 59 | `CN(CC(C)(C)O)C(=O)Nc1ccc(F)c(-n2cccc2)c1` | 8.219 | 4.869 | 6.316 |
| 60 | `CNS(=O)(=O)c1cccc(CNCc2ccsc2)c1` | 8.036 | 3.539 | 6.897 |

5 of the entries, repeated:

Cc1cc(CN2CCC(CNC(=O)Cc3ccc(F)cc3)C2)[nH]n1 (centres undefined) gave LiHisRS: 27.63%; PfKRS1: 2.066%; TcHisRS: 5.435%.
Cc1cccc(Nc2cc(C)nc(C3CCN(C(C)C)C3)n2)n1 (centres undefined) gave LiHisRS: 14.49%; PfKRS1: -1.281%; TcHisRS: 6.818%.
COc1cc(NCc2ncc[nH]2)ccc1Br gave LiHisRS: 3.419%; PfKRS1: 0.2687%; TcHisRS: 0.5405%.
O=S(=O)(NCC(O)c1ccoc1)c1ccc(Br)s1 (centres undefined) gave LiHisRS: 5.195%; PfKRS1: 0.1657%; TcHisRS: 4.848%.
CCS(=O)(=O)CC(=O)N1CCCC(c2noc(C(C)C)n2)C1 (centres undefined) gave LiHisRS: -3.896%; PfKRS1: 0.2322%; TcHisRS: 4.433%.